# Test results taken from the supplement of paper PMC7666118.
# The chains behind the UniProt entries cited, without tags or fusion partners. Where a name states a change or a piece, a line headed by the entry shows the natural chain unless it says otherwise.
# UniProt P55011: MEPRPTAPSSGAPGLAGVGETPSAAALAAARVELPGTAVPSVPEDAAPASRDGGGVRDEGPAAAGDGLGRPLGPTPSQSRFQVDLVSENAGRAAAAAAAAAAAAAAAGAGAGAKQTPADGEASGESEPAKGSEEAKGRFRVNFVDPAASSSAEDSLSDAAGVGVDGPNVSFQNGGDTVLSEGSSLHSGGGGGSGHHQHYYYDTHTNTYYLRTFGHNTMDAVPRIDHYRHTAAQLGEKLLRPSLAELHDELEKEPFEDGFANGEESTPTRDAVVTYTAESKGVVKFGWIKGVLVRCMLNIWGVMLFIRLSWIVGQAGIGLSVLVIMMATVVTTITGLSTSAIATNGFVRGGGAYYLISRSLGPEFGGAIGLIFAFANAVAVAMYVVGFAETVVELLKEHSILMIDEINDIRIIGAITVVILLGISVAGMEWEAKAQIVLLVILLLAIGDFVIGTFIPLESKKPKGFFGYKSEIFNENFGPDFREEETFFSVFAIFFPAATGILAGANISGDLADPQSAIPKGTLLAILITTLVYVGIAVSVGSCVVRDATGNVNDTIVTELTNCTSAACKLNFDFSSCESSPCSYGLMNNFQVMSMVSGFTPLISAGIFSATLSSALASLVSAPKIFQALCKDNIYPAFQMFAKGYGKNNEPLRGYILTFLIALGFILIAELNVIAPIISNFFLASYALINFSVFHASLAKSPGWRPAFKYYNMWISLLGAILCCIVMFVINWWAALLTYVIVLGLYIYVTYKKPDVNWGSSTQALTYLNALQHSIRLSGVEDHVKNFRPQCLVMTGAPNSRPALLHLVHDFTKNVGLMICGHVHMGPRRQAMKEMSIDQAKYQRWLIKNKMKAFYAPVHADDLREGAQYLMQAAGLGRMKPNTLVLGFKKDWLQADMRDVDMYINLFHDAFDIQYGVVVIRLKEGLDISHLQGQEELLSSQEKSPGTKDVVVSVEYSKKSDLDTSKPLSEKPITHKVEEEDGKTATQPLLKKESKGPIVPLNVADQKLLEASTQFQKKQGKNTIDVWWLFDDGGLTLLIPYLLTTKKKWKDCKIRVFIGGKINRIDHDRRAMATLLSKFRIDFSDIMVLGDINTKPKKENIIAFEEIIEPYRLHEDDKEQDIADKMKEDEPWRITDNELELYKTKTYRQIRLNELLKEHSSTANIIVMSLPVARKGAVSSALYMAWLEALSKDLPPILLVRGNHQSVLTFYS
# UniProt Q7Z769: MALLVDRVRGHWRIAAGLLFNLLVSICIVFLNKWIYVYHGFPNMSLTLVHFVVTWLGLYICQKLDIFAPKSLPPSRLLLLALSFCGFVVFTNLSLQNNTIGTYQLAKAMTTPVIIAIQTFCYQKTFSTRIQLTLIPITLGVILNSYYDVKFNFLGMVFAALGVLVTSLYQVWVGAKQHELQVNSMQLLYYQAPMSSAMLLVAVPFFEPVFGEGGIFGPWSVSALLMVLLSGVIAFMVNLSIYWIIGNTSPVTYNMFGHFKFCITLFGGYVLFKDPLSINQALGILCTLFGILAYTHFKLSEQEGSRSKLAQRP
# UniProt O75563, whole entry, looked up: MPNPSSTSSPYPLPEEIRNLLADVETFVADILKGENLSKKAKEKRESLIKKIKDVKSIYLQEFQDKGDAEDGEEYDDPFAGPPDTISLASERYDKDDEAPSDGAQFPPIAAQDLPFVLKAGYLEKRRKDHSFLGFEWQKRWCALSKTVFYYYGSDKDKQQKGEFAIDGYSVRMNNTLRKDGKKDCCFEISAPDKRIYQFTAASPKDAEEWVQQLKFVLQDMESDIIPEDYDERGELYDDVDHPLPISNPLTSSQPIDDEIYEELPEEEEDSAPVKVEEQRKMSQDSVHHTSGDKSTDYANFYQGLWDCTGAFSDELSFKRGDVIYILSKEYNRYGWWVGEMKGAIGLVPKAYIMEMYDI
# UniProt Q15427: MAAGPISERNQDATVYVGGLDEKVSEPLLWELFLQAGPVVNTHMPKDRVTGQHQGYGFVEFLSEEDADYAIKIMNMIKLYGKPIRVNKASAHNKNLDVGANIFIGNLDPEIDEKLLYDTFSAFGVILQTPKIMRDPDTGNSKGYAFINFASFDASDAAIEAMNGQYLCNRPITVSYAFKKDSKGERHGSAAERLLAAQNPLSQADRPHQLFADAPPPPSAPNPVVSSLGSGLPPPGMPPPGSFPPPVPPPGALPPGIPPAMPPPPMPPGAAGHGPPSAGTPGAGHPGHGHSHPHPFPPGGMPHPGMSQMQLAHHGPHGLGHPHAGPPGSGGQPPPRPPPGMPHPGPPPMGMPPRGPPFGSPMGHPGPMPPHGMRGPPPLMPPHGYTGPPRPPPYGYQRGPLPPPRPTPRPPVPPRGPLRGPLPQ
# UniProt Q8N697: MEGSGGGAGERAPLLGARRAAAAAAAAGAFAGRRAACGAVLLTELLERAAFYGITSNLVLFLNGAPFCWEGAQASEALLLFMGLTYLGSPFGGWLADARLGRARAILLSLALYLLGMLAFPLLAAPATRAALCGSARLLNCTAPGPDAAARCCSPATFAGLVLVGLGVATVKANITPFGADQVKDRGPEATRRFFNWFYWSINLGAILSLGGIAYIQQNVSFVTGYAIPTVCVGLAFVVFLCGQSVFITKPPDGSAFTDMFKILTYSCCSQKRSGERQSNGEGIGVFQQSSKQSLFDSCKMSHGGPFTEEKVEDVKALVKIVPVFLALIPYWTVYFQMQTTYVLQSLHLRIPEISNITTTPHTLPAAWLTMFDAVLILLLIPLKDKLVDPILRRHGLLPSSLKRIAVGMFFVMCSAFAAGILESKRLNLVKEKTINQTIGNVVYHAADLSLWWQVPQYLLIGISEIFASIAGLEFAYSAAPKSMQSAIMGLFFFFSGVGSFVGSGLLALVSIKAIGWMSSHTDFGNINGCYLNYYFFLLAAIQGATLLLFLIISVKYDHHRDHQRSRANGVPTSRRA
# UniProt P62316, whole entry: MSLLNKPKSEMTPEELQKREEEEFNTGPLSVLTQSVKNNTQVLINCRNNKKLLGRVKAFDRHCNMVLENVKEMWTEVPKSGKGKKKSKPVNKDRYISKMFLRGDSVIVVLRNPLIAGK
# UniProt Q9NTN3, whole entry, looked up: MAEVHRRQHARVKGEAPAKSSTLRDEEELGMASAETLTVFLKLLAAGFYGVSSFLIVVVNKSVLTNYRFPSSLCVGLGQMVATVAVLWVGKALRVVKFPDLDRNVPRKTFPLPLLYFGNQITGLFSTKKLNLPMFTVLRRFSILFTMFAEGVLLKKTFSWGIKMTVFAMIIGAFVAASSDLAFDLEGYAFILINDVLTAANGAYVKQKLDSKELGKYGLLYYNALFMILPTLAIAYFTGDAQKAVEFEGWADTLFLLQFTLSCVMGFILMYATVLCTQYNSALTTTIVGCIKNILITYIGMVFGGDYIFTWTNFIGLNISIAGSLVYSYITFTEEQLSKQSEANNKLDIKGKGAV
# UniProt Q92922, whole entry: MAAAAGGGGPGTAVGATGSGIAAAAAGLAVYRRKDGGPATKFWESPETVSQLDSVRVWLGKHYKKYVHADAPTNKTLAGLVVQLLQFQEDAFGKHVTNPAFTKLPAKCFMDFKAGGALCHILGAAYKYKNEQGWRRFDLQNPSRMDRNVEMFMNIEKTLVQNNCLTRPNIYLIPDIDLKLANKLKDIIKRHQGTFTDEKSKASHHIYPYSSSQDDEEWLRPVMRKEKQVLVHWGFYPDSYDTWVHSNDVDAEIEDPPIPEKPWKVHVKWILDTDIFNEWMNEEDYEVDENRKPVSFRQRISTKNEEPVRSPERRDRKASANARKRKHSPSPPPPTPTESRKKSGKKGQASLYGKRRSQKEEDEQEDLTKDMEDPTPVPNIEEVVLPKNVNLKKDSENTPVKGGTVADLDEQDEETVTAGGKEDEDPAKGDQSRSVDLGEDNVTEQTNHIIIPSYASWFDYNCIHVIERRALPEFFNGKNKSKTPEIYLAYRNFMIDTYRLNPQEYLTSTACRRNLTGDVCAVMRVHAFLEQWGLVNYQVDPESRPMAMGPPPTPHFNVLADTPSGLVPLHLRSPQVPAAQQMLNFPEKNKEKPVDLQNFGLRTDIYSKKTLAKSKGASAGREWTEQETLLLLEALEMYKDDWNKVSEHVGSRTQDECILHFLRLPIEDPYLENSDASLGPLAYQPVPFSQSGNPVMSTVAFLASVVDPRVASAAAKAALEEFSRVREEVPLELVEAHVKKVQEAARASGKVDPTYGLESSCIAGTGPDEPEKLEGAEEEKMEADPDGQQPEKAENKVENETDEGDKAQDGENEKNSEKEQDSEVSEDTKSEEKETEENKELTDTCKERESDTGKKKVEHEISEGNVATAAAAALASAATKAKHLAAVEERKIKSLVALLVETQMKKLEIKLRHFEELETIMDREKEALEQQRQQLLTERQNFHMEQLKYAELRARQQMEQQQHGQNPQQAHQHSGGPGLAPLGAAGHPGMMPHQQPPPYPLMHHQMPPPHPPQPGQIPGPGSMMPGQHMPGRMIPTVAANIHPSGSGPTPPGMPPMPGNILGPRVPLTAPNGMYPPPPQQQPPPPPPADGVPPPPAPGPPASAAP
# UniProt Q15036: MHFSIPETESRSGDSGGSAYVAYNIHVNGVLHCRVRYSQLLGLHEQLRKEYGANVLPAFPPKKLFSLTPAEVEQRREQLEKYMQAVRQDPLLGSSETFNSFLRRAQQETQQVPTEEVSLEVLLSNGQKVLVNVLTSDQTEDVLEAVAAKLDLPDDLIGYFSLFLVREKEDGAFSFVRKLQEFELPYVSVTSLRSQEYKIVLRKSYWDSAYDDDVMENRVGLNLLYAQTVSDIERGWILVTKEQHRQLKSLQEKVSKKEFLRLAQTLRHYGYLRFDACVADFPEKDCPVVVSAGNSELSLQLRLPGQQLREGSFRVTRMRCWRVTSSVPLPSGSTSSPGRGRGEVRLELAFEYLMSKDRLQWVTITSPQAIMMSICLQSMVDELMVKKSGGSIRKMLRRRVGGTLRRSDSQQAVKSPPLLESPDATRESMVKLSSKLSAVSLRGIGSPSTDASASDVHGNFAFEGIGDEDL
# UniProt Q8TB61: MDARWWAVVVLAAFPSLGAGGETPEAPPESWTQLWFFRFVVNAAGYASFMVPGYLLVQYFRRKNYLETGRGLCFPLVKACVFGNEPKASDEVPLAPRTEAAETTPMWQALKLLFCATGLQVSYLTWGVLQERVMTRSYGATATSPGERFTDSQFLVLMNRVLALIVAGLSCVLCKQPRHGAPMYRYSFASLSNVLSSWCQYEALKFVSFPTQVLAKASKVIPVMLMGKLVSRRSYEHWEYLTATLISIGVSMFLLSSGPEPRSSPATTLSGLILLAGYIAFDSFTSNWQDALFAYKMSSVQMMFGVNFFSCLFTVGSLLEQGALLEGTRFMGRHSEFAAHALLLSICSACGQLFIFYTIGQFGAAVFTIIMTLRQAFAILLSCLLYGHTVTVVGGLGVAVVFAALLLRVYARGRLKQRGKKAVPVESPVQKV
# UniProt Q9BXS9: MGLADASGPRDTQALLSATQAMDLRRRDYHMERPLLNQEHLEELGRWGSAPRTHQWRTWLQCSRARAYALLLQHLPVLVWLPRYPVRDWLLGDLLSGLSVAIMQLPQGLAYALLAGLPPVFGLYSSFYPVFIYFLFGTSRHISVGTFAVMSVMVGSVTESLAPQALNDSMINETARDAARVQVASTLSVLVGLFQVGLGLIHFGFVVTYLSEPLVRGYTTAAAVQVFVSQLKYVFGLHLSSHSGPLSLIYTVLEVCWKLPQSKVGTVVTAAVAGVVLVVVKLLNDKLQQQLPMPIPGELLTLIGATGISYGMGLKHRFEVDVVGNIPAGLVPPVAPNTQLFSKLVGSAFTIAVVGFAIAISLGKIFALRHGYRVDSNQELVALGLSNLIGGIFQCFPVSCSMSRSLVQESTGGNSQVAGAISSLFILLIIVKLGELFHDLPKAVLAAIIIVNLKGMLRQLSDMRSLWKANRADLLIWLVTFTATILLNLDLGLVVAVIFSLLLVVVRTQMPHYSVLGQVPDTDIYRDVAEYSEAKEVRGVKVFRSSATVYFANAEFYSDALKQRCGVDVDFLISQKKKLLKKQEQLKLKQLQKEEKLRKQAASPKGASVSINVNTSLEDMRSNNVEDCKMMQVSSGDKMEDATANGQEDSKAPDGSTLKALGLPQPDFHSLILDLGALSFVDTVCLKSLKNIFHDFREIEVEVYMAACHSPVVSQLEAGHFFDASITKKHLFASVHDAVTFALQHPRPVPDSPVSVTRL
# UniProt Q6KCM7: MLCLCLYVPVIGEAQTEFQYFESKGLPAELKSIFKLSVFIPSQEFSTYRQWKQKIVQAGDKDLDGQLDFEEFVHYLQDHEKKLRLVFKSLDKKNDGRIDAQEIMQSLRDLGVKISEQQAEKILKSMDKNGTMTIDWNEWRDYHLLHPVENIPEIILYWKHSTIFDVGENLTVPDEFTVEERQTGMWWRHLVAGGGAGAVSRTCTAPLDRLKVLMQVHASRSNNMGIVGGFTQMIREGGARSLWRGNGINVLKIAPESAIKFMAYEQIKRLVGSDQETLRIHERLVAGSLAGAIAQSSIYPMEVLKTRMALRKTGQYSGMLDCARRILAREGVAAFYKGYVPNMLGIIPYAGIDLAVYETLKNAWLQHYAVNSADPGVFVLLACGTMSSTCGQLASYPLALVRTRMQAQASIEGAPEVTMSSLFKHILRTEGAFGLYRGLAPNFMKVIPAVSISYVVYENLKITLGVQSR
# Some of the results follow.
# Compound: COc1ccc(Cn2ccc3cc(C)c(C(=O)NO)cc32)cc1
# Assay: dose-dependent thermal stabilisation call (2D-TPP, DLPTP, 10% FDR) (binary (1 = stabilised)); higher = stabilised by the compound
# Conditions: system: HL-60 intact cells; concentration range 0.04-10 µM
# Experimental: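 2D thermal proteome profiling in intact HL-60 cells treated with BRD-3811 (0, 0.04, 0.29, 2, 10 uM) for 90 min at 37 C, then heated 3 min at one of 12 temperatures (42-63.9 C). Soluble protein was quantified by TMT10 MS. The value is the DLPTP call of the paper: dose-dependent thermal stabilisation over all temperatures at 10% FDR (F-test of a dose-response against a flat model); one experiment, one call per tested protein.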
row,Target,dose-dependent thermal stabilisation call
1,SMPD1 (UniProt P17405),inactive: 0
2,SNRPF (UniProt P62306),inactive: 0
3,SLC12A2 (UniProt P55011),inactive: 0
4,SMARCE1 (UniProt Q969G3),inactive: 0
5,SLC35E3 (UniProt Q7Z769),inactive: 0
6,SLC2A3 (UniProt P11169),inactive: 0
7,SLC2A5 (UniProt P22732),inactive: 0
8,SMARCC2 (UniProt Q8TAQ2),inactive: 0
9,SH3GL1 (UniProt Q99961),inactive: 0
10,SKAP2 (UniProt O75563),inactive: 0
11,SF3B4 (UniProt Q15427),inactive: 0
12,SMCHD1 (UniProt A6NHR9),inactive: 0
13,SETDB1 (UniProt Q15047),inactive: 0
14,SLC15A4 (UniProt Q8N697),inactive: 0
15,SNRPD2 (UniProt P62316),inactive: 0
16,SLC35D1 (UniProt Q9NTN3),inactive: 0
17,SMARCC1 (UniProt Q92922),inactive: 0
18,SLBP (UniProt Q14493),inactive: 0

row,Target,dose-dependent thermal stabilisation call
1,SLC25A20 (UniProt O43772),inactive: 0
2,SLC23A2 (UniProt Q9UGH3),inactive: 0
3,SNX17 (UniProt Q15036),inactive: 0
4,SLC24A6 (UniProt Q6J4K2),inactive: 0
5,SLC35B2 (UniProt Q8TB61),inactive: 0
6,SETD2 (UniProt Q9BYW2),inactive: 0
7,SNAPC5 (UniProt O75971),inactive: 0
8,SLC25A16 (UniProt P16260),inactive: 0
9,SNRPD1 (UniProt P62314),inactive: 0
10,SLC26A6 (UniProt Q9BXS9),inactive: 0
11,SESN2 (UniProt P58004),inactive: 0
12,SLMAP (UniProt Q14BN4),inactive: 0
13,SLC27A2 (UniProt O14975),inactive: 0
14,SMS (UniProt P52788),inactive: 0
15,SLC2A13 (UniProt Q96QE2),inactive: 0
16,SIRPA (UniProt P78324),inactive: 0
17,SHARPIN (UniProt Q9H0F6),inactive: 0
18,SLC25A25 (UniProt Q6KCM7),inactive: 0

# 2 records drawn at random from those above:
row,Target,dose-dependent thermal stabilisation call
17,SHARPIN (UniProt Q9H0F6),inactive: 0
16,SIRPA (UniProt P78324),inactive: 0
